The test system of experiment [1] is HeLa K (ENP1 immunofluorescence, +LMB). The experiment can be described thus: fraction of cells with nucleolar or nucleolar/nucleoplasmic ENP1 signal (MainHitrate); higher = more cells with nucleolar/nuclear readout signal (for ENP1 -LMB: less RNAPI inhibition; for +LMB ENP1 and RP reporters: stronger nuclear/nucleolar retention, i.e. ribosome biogenesis defect). Particulars: concentration: 1 µM; treatment time: 6 h; ENP1 +LMB; leptomycin B: 20 nM, last 1.5 h.

Experiment [2] relates to HeLa K (ENP1 immunofluorescence, no LMB). Described as above. Particulars: concentration: 1 µM; treatment time: 6 h; ENP1 -LMB; leptomycin B: none.
The test system of the next experiment is HeLa RPS2-YFP reporter. The experiment can be described thus: fraction of reporter-positive cells with nuclear (nucleolar or nucleolar/nucleoplasmic) RPS2-YFP (MainHitrate); higher = more cells with nucleolar/nuclear readout signal (for ENP1 -LMB: less RNAPI inhibition; for +LMB ENP1 and RP reporters: stronger nuclear/nucleolar retention, i.e. ribosome biogenesis defect). Particulars: concentration: 1 µM; treatment time: 6 h.

In a further experiment the test system is HeLa RPL29-GFP reporter. Put plainly: fraction of reporter-positive cells with nuclear (nucleolar or nucleolar/nucleoplasmic) RPL29-GFP (MainHitrate); higher = more cells with nucleolar/nuclear readout signal (for ENP1 -LMB: less RNAPI inhibition; for +LMB ENP1 and RP reporters: stronger nuclear/nucleolar retention, i.e. ribosome biogenesis defect). Particulars: concentration: 1 µM; treatment time: 6 h.

Molecules are shown by their SMILES. Where a name gives a salt, the structure may show the parent alone. ± gives the standard deviation of the averaged measurements. Some of the results follow. These are raw signals, not scaled to a control.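 Ribosome-assembly readouts in HeLa cells were imaged via ENP1 staining, with or without export block, or inducible tagged ribosomal protein reporters. Machine learning classified per-cell signal location versus solvent (DMSO) controls. Hits surpassed the DMSO false-positive mean by five standard deviations and were visually confirmed; three biological replicates.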

These results are taken from the supplement of paper PMC12542422.

On to `CSc1ccc2c(c1)N(CCC1CCCCN1C)c1ccccc1S2` (stereo not drawn) [Thioridazine HCl], for which the fraction was 0.256 ± 0.4 in experiment [1] and 0.9967 ± 0.0058 in experiment [2]. In addition, the entries for the “fraction of reporter-positive cells with nuclear” value (from here on “fraction … with nuclear”) in the experiment with HeLa RPS2-YFP reporter and in the experiment on HeLa RPL29-GFP reporter were 0.168 ± 0.12 and 0.298 ± 0.22, respectively.

For `CN(C)/N=N/c1[nH]cnc1C(N)=O` [Dacarbazine (DTIC-Dome)], the fraction in experiment [1] came to 0.092 ± 0.062; in experiment [2] it was 0.9983 ± 0.0029. Besides, the “fraction … with nuclear” value came out at 0.093 ± 0.065 in the experiment with HeLa RPS2-YFP reporter and 0.219 ± 0.063 with HeLa RPL29-GFP reporter.

Turning to `CCNC(=O)CCC/C=C\C[C@@H]1[C@@H](/C=C/[C@@H](O)CCc2ccccc2)[C@H](O)C[C@@H]1O` [Bimatoprost], the figures for the fraction in experiment [1] and in experiment [2] were 0.107 ± 0.13 and 0.9978 ± 0.0038, respectively. Besides, the “fraction … with nuclear” value was found to be 0.12 ± 0.081 in the experiment on HeLa RPS2-YFP reporter and 0.251 ± 0.082 with HeLa RPL29-GFP reporter.

On to `CC(=O)[C@H]1CC[C@H]2[C@@H]3C=CC4=CC(=O)CC[C@@]4(C)[C@@H]3CC[C@]12C` [Dydrogesterone], for which the fraction in experiment [1] came out at 0.152 ± 0.24; in experiment [2] it was 0.979 ± 0.037. Also, the “fraction … with nuclear” value with HeLa RPS2-YFP reporter was 0.132 ± 0.11; in the experiment with HeLa RPL29-GFP reporter, 0.217 ± 0.074.

For `CC(C(=O)O)c1ccc2c(c1)Cc1cccnc1O2` (stereo not drawn) [Pranoprofen], the fraction in experiment [1] was found to be 0.0376 ± 0.038; in experiment [2], 0.9962 ± 0.0066. Further, the “fraction … with nuclear” value in the experiment with HeLa RPS2-YFP reporter amounted to 0.0595 ± 0.022; in the experiment on HeLa RPL29-GFP reporter it was 0.249 ± 0.08.

`CCOC(=O)C(C)(C)Oc1ccc(Cl)cc1` [Clofibrate (Atromid-S)]: the results for the fraction in experiment [1] and in experiment [2] were 0.0273 ± 0.022 and 0.9951 ± 0.0084, respectively. The “fraction … with nuclear” value in the experiment on HeLa RPS2-YFP reporter came out at 0.102 ± 0.097; with HeLa RPL29-GFP reporter, 0.235 ± 0.099.

In the case of `CCn1cc(C(=O)O)c(=O)c2cc(F)c(N3CCNCC3)nc21` [Enoxacin (Penetrex)], the fraction in experiment [1] was 0.122 ± 0.15; in experiment [2], 0.9986 ± 0.0024. Also, the “fraction … with nuclear” value in the experiment with HeLa RPS2-YFP reporter turned out to be 0.136 ± 0.11; in the experiment with HeLa RPL29-GFP reporter, 0.204 ± 0.078.

For `CCC[C@H](NC(=O)[C@@H]1[C@H]2CCC[C@H]2CN1C(=O)[C@@H](NC(=O)[C@@H](NC(=O)c1cnccn1)C1CCCCC1)C(C)(C)C)C(=O)C(=O)NC1CC1` [Telaprevir (VX-950)], the fraction in experiment [1] worked out at 0.0904 ± 0.086; in experiment [2] it was 0.9987 ± 0.0022. In addition, the figures for the “fraction … with nuclear” value in the experiment on HeLa RPS2-YFP reporter and with HeLa RPL29-GFP reporter were 0.119 ± 0.076 and 0.2 ± 0.052, respectively.

For `O=C(Oc1ccccc1C(=O)O)c1ccccc1O` [Sasapyrine], the fraction stood at 0.0515 ± 0.063 in experiment [1] and 0.987 ± 0.022 in experiment [2]. Further, the figures for the “fraction … with nuclear” value in the experiment with HeLa RPS2-YFP reporter and in the experiment with HeLa RPL29-GFP reporter were 0.127 ± 0.082 and 0.224 ± 0.042, respectively.

On to `CN1CCC[C@H]1c1cccnc1` [Nicotine Ditartrate], for which the fraction in experiment [1] was 0.254 ± 0.39; in experiment [2], 0.99955 ± 0.00078. For the same compound, the “fraction … with nuclear” value in the experiment on HeLa RPS2-YFP reporter was 0.155 ± 0.16; in the experiment with HeLa RPL29-GFP reporter it was 0.293 ± 0.25.

For the compound `O=C(O)C1(C(=O)O)CCC1.[NH2-].[NH2-].[Pt+2]` [Carboplatin], the values for the fraction in experiment [1] and in experiment [2] were 0.1 ± 0.1 and 0.9983 ± 0.0029, respectively. The “fraction … with nuclear” value was 0.119 ± 0.069 with HeLa RPS2-YFP reporter and 0.204 ± 0.058 in the experiment with HeLa RPL29-GFP reporter.

Regarding `CC[C@@H]([C@H](C)O)n1ncn(-c2ccc(N3CCN(c4ccc(OC[C@@H]5CO[C@@](Cn6cncn6)(c6ccc(F)cc6F)C5)cc4)CC3)cc2)c1=O` [Posaconazole], the fraction came out at 0.0942 ± 0.084 in experiment [1] and 0.9988 ± 0.002 in experiment [2]. Also, the “fraction … with nuclear” value in the experiment with HeLa RPS2-YFP reporter came out at 0.146 ± 0.086; with HeLa RPL29-GFP reporter, 0.203 ± 0.06.

`C[C@@H]1CN(c2c(F)c(N)c3c(=O)c(C(=O)O)cn(C4CC4)c3c2F)C[C@H](C)N1` [Sparfloxacin]: the values for the fraction in experiment [1] and in experiment [2] were 0.108 ± 0.13 and 0.986 ± 0.024, respectively. Moreover, the “fraction … with nuclear” value was found to be 0.13 ± 0.066 with HeLa RPS2-YFP reporter and 0.241 ± 0.093 with HeLa RPL29-GFP reporter.

As for `COc1cc2c(cc1Cc1cccc(Cl)c1F)c(=O)c(C(=O)O)cn2[C@H](CO)C(C)C` [Elvitegravir (GS-9137)], the fraction stood at 0.113 ± 0.16 in experiment [1] and 0.992 ± 0.014 in experiment [2]. Also, the “fraction … with nuclear” value with HeLa RPS2-YFP reporter was 0.105 ± 0.061; in the experiment with HeLa RPL29-GFP reporter, 0.215 ± 0.076.

For the compound `NC(=O)CC[C@H](N)C(=O)O` [L-Glutamine], the fraction in experiment [1] is 0.0874 ± 0.097; in experiment [2], 0.9986 ± 0.0025. Further, the “fraction … with nuclear” value worked out at 0.104 ± 0.045 in the experiment with HeLa RPS2-YFP reporter and 0.211 ± 0.07 with HeLa RPL29-GFP reporter.

Regarding `CC[C@H]1OC(=O)[C@H](C)[C@@H](O[C@H]2C[C@@](C)(OC)[C@@H](O)[C@H](C)O2)[C@H](C)[C@@H](O[C@@H]2O[C@H](C)C[C@H](N(C)C)[C@H]2O)[C@](C)(O)C[C@@H](C)CN(C)[C@H](C)[C@@H](O)[C@]1(C)O` [Azithromycin (Zithromax)], the values for the fraction in experiment [1] and in experiment [2] were 0.0795 ± 0.11 and 0.994 ± 0.01, respectively. The “fraction … with nuclear” value in the experiment with HeLa RPS2-YFP reporter is 0.109 ± 0.068; in the experiment on HeLa RPL29-GFP reporter, 0.249 ± 0.056.

Turning to `C[C@]12CCC(=O)C=C1CC[C@@H]1[C@@H]2[C@@H](O)C[C@@]2(C)[C@H]1CC[C@]2(O)C(=O)CO` [Hydrocortisone (Cortisol)], the fraction in experiment [1] amounted to 0.0535 ± 0.027; in experiment [2], 0.9981 ± 0.0032. Moreover, the “fraction … with nuclear” value in the experiment with HeLa RPS2-YFP reporter came out at 0.0944 ± 0.069; in the experiment with HeLa RPL29-GFP reporter, 0.25 ± 0.053.
